This note sets out measurements from article PMC12758326.

No constants are given. Whether binding was seen depends on the method and setting. Binding seen in cells or lysates may run through a third protein. Some results given as binding are weak or reduced against the parent protein; the word gives no strength.

In this test the target is T1, PPARGC1A/PGC-1α (human (endogenous in HK2)) (UniProt Q9UBK2).
T1 sequence: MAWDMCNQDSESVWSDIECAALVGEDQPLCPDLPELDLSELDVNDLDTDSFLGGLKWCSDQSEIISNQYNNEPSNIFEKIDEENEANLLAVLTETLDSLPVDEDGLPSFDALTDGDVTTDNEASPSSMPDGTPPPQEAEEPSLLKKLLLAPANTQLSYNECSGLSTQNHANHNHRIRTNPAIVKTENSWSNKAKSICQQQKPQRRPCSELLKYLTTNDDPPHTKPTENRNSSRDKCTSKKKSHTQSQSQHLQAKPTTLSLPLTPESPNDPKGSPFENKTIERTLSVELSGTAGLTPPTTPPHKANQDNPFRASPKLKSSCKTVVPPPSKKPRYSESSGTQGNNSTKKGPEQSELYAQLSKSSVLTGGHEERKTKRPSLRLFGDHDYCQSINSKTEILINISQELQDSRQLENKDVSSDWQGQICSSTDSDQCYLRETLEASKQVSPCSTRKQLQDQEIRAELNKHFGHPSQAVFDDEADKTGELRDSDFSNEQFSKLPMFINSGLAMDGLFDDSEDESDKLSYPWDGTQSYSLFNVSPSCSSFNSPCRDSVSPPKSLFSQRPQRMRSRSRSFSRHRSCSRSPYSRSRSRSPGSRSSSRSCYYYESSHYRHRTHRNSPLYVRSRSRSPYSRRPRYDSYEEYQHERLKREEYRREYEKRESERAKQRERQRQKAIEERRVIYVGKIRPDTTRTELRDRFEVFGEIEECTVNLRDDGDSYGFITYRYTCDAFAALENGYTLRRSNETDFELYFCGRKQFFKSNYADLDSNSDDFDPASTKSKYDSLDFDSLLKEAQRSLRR
As to the kind of experiment: co-IP; proteins extracted from HK2 cells incubated with anti-PGC-1α at 4°C overnight, protein A/G beads 2 h, western blot; cells with circAASS knockdown, or H/R-treated with overexpression of circAASS or of its linearised variants (LcircAASS-JS, RLcircAASS, LcircAASS-JS mut, LcircAASS-JS 518-776).

B1: RNF34 (protein, UniProt Q969K3 1-372)
chain: MKAGATSMWASCCGLLNEVMGTGAVRGQQSAFAGATGPFRFTPNPEFSTYPPAATEGPNIVCKACGLSFSVFRKKHVCCDCKKDFCSVCSVLQENLRRCSTCHLLQETAFQRPQLMRLKVKDLRQYLILRNIPIDTCREKEDLVDLVLCHHGLGSEDDMDTSSLNSSRSQTSSFFTRSFFSNYTAPSATMSSFQGELMDGDQTSRSGVPAQVQSEITSANTEDDDDDDDEDDDDEEENAEDRNPGLSKERVRASLSDLSSLDDVEGMSVRQLKEILARNFVNYSGCCEKWELVEKVNRLYKENEENQKSYGERLQLQDEEDDSLCRICMDAVIDCVLLECGHMVTCTKCGKRMSECPICRQYVVRAVHVFKS
For the molecule B1, the binding entry is on record as “binds”.
